Paper PMC10854676
These are yes or no findings as the source states them, for the method shown. Some results given as binding are weak or reduced against the parent protein; the word gives no strength.

Chains of the proteins cited; added tags and fusions are not shown. Lines headed by an entry give the natural chain unless they say otherwise; changes in a name come on top. A line that says so, or that is headed by a name, gives the form on record, which may keep a tag or linker. Residues count along the entry.
UniProt O75475: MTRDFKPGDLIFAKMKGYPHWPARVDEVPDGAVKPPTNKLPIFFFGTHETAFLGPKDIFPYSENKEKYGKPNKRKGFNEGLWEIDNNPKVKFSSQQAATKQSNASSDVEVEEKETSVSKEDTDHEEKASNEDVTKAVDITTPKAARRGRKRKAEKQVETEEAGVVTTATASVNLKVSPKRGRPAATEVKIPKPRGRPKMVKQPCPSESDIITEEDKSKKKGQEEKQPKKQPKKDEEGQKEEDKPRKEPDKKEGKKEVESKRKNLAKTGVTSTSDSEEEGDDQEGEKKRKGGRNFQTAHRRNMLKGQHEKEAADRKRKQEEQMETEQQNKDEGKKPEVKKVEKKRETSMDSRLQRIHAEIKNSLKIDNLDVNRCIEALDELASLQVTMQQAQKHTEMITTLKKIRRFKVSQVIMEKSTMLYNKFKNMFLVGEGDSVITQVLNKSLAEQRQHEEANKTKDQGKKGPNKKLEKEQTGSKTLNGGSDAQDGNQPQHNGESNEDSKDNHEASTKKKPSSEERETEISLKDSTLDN
Flag-LEDGF/p75_(dDNA) (O75475, form named): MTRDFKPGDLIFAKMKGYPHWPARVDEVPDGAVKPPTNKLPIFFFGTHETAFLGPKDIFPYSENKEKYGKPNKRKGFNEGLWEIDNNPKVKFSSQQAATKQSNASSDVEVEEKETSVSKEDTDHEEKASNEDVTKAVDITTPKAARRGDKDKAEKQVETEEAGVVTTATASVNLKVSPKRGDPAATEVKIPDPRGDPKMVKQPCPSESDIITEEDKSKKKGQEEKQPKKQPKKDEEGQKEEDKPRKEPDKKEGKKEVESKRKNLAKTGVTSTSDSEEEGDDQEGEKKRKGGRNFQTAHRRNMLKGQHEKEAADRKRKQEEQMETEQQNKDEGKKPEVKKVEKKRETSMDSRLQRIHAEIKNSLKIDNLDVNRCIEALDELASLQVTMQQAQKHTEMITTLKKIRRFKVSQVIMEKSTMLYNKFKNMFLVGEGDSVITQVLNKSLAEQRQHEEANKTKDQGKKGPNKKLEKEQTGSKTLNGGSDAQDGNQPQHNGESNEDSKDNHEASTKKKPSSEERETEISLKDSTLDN
UniProt Q03164, residues 1-160: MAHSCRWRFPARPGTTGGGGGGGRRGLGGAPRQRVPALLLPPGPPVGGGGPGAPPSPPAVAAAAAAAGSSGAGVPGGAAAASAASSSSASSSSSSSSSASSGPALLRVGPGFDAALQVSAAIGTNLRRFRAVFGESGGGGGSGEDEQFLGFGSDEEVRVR

Assays:
[1] = target: T1, JPO2 (UniProt Q96GN5); assay: AlphaScreen or HTRF; LEDGF/p75 with JPO2, DNA present (Supporting Figure S3); format not given
T1 sequence: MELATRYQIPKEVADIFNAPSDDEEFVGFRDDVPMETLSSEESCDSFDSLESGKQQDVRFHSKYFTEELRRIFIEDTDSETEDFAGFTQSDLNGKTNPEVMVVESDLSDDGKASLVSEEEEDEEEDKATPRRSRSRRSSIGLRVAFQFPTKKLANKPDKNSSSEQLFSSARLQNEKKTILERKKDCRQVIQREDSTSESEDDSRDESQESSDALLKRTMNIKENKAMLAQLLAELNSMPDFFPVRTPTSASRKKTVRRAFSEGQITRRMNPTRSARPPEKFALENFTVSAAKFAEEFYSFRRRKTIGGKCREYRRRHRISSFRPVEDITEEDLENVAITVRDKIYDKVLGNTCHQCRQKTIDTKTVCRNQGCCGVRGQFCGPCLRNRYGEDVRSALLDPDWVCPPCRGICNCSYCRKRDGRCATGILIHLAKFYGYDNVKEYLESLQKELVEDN

[2] = target: GST-LEDGF/p75 (UniProt O75475); assay: condition: only with 0.13 U/well micrococcal nuclease; AlphaScreen or HTRF; direct titration with 0.13 U/well micrococcal nuclease (and 5 mM CaCl2) in the AlphaScreen buffer to digest the remaining DNA; both purified
[3] = target: MLL1_(1–160)-GST (UniProt Q03164); assay: as above
[4] = target: T1, JPO2; assay: AlphaScreen or HTRF; LEDGF/p75 with JPO2 in the absence of DNA (Supporting Figure S3); how the DNA was removed is not given
[5] = target: MLL1_(1–160)-GST (UniProt Q03164); assay: AlphaScreen or HTRF; direct titration or cross-titration of two differently tagged proteins at nanomolar concentrations (one partner fixed at 100-350 nM); no nuclease; protein batches held DNA at 2 µg/mL or lower; both purified
[6] = target: Flag-LEDGF/p75 WT (UniProt O75475); assay: as above

binding [1]	binding [2]	binding [3]	binding [5]	binding [6]	Substance	binding [4]
binds	no binding	no binding	–	–	Flag-LEDGF/p75 WT (from UniProt O75475 1-530)	no binding (condition: in the absence of DNA)
no binding	–	–	no binding	–	Flag-LEDGF/p75_(dDNA) (from UniProt O75475 1-530)	–
–	–	–	–	binds weakly	His6-LEDGF_(345–530) (from UniProt O75475 345-530) (domain or fragment)	–
